Measured values from the supplement of paper PMC6078165.
The reference is the same well before dosing, and untreated signal decays as well.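 Fibroblast labels name human fibroblasts: mostly primary ones from tissues such as uterus (C12385, HUF), lung (H6013), bone (Hs27A), adrenal (HADF) and skin (WS1), plus mammary HMF and breast cancer-associated Hs343T. The cancer cells are basal-like or mesenchymal-like triple-negative breast cancer lines. The paper calls a changed response a hit when it shifts by more than 3x the replicate standard deviation. The tissue of the other fibroblasts is not given here.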

Tested on: MDAMB468
Experiment: relative JC-1 red fluorescence (viability) vs pre-drug, coculture with fibroblast (fraction); higher = more viable cancer cells
Conditions: 10 µM
Procedure: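 JC-1 labelled TNBC cells cocultured 1:1 (1,500 cells each) with CellTrace Violet stained primary or stromal fibroblasts in 384-well plates in FluoroBrite medium, treated with one of 42 anticancer drugs at 0.1, 1, 10 or 100 uM. JC-1 red fluorescence (mitochondrial integrity in cancer cells only) was read by plate reader every 8 h for 72 h. Values are normalised to each well's pre-drug value. The stock of one drug was tenfold lower, so its dose labels may be too high.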

COc1cc([C@@H]2c3cc4c(cc3[C@@H](O[C@@H]3O[C@@H]5CO[C@@H](c6cccs6)O[C@H]5[C@H](O)[C@H]3O)[C@H]3COC(=O)[C@H]23)OCO4)cc(OC)c1O [Teniposide]
relative JC-1 red fluorescence
Conditions | 8 h | 16 h | 24 h | 32 h | 40 h | 48 h | 56 h | 64 h | 72 h
coculture fibroblast: C12385 | 0.868 | 0.847 | 0.816 | 0.742 | 0.703 | 0.685 | 0.643 | 0.629 | 0.606
coculture fibroblast: H6013 | 0.864 | 0.85 | 0.809 | 0.771 | 0.739 | 0.728 | 0.689 | 0.674 | 0.598
coculture fibroblast: H6019 | 0.841 | 0.81 | 0.767 | 0.713 | 0.678 | 0.681 | 0.65 | 0.642 | 0.647
coculture fibroblast: H6076 | 0.9066 | 0.915 | 0.8359 | 0.827 | 0.727 | 0.714 | 0.667 | 0.655 | 0.703
coculture fibroblast: H6231 | 0.8352 | 0.958 | 0.87 | 0.827 | 0.724 | 0.691 | 0.628 | 0.587 | 0.581
coculture fibroblast: HADF | 0.878 | 0.886 | 0.836 | 0.809 | 0.782 | 0.778 | 0.731 | 0.721 | 0.645
coculture fibroblast: HCFa | 0.859 | 0.836 | 0.771 | 0.727 | 0.684 | 0.687 | 0.625 | 0.602 | 0.554
coculture fibroblast: HCPF | 0.8768 | 0.957 | 0.8963 | 0.907 | 0.809 | 0.783 | 0.712 | 0.694 | 0.674
coculture fibroblast: HHSteC | 0.902 | 0.892 | 0.851 | 0.82 | 0.797 | 0.814 | 0.747 | 0.716 | 0.653
coculture fibroblast: HMF | 0.841 | 0.936 | 0.827 | 0.79 | 0.687 | 0.656 | 0.589 | 0.55 | 0.536
coculture fibroblast: HPFa | 0.9215 | 0.8982 | 0.86 | 0.786 | 0.758 | 0.768 | 0.691 | 0.672 | 0.593
coculture fibroblast: HUF | 0.892 | 0.841 | 0.778 | 0.701 | 0.65 | 0.632 | 0.587 | 0.584 | 0.567
coculture fibroblast: Hs5 | 0.986 | 0.9376 | 0.9085 | 0.8896 | 0.806 | 0.777 | 0.763 | 0.7246 | 0.7467
coculture fibroblast: Hs27A | 0.867 | 0.875 | 0.808 | 0.807 | 0.785 | 0.797 | 0.77 | 0.757 | 0.69
coculture fibroblast: Hs343T | 0.8935 | 0.97 | 0.89034 | 0.85414 | 0.736 | 0.688 | 0.611 | 0.577 | 0.56
coculture fibroblast: WS1 | 0.8718 | 0.842 | 0.772 | 0.713 | 0.684 | 0.638 | 0.612 | 0.568 | 0.555
